Measurements published in paper PMC6014988, “Precision therapeutic targeting of human cancer cell motility” (Nature Communications, 2018).
These are yes or no findings as the source states them, for the method shown. Some binding calls cover weakened binding; strength is not graded here.

Protein sequences, listed by entry. Tags and fused reporters are not part of them.
UniProt P08238: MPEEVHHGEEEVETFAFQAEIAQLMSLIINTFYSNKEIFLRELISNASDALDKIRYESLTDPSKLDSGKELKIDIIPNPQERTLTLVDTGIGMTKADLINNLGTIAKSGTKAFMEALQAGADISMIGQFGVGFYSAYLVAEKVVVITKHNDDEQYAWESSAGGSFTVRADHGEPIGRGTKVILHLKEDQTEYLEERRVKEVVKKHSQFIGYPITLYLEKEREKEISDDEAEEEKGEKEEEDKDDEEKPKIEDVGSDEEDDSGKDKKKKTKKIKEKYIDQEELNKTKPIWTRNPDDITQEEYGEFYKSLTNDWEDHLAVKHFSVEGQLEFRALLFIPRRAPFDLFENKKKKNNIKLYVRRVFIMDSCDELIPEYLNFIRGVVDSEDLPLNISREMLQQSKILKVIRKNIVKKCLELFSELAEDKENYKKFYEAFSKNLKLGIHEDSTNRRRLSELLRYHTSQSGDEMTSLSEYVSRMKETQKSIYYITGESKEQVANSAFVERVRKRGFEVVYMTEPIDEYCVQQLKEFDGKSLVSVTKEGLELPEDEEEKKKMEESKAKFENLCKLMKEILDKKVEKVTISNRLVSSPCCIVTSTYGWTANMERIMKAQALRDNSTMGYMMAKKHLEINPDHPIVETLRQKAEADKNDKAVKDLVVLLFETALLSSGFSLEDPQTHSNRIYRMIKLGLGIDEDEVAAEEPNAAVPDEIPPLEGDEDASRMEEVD
UniProt Q13546: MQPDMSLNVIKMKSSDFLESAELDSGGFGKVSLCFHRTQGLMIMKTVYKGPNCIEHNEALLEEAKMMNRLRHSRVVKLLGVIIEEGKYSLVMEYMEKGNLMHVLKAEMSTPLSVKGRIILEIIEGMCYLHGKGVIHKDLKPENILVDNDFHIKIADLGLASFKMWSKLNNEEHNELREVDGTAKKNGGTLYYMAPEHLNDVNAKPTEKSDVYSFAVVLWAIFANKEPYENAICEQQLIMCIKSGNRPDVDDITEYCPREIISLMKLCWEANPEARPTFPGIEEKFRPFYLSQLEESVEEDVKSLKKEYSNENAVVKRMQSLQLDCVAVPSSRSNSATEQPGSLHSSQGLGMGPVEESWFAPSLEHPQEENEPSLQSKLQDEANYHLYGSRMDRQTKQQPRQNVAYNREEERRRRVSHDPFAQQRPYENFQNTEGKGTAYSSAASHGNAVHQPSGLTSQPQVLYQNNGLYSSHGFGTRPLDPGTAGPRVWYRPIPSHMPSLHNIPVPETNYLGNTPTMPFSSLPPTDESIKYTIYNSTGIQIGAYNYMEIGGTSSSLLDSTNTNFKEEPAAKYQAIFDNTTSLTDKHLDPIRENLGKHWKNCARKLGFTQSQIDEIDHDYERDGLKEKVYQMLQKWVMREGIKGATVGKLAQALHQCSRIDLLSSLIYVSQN

B1: SGK3 (enzyme, UniProt Q96BR1 1-496)
chain: MQRDHTMDYKESCPSVSIPSSDEHREKKKRFTVYKVLVSVGRSEWFVFRRYAEFDKLYNTLKKQFPAMALKIPAKRIFGDNFDPDFIKQRRAGLNEFIQNLVRYPELYNHPDVRAFLQMDSPKHQSDPSEDEDERSSQKLHSTSQNINLGPSGNPHAKPTDFDFLKVIGKGSFGKVLLAKRKLDGKFYAVKVLQKKIVLNRKEQKHIMAERNVLLKNVKHPFLVGLHYSFQTTEKLYFVLDFVNGGELFFHLQRERSFPEHRARFYAAEIASALGYLHSIKIVYRDLKPENILLDSVGHVVLTDFGLCKEGIAISDTTTTFCGTPEYLAPEVIRKQPYDNTVDWWCLGAVLYEMLYGLPPFYCRDVAEMYDNILHKPLSLRPGVSLTAWSILEELLEKDRQNRLGAKEDFLEIQNHPFFESLSWADLVQKKIPPPFNPNVAGPDDIRNFDTAFTEETVPYSVCVSSDYSIVNASVLEADDAFVGFSYAPPSEDLFL
B2: MAP3K6 (enzyme, UniProt O95382 1-1288)
chain: MAGPCPRSGAERAGSCWQDPLAVALSRGRQLAAPPGRGCARSRPLSVVYVLTREPQPGLEPREGTEAEPLPLRCLREACAQVPRPRPPPQLRSLPFGTLELGDTAALDAFYNADVVVLEVSSSLVQPSLFYHLGVRESFSMTNNVLLCSQADLPDLQALREDVFQKNSDCVGSYTLIPYVVTATGRVLCGDAGLLRGLADGLVQAGVGTEALLTPLVGRLARLLEATPTDSCGYFRETIRRDIRQARERFSGPQLRQELARLQRRLDSVELLSPDIIMNLLLSYRDVQDYSAIIELVETLQALPTCDVAEQHNVCFHYTFALNRRNRPGDRAKALSVLLPLVQLEGSVAPDLYCMCGRIYKDMFFSSGFQDAGHREQAYHWYRKAFDVEPSLHSGINAAVLLIAAGQHFEDSKELRLIGMKLGCLLARKGCVEKMQYYWDVGFYLGAQILANDPTQVVLAAEQLYKLNAPIWYLVSVMETFLLYQHFRPTPEPPGGPPRRAHFWLHFLLQSCQPFKTACAQGDQCLVLVLEMNKVLLPAKLEVRGTDPVSTVTLSLLEPETQDIPSSWTFPVASICGVSASKRDERCCFLYALPPAQDVQLCFPSVGHCQWFCGLIQAWVTNPDSTAPAEEAEGAGEMLEFDYEYTETGERLVLGKGTYGVVYAGRDRHTRVRIAIKEIPERDSRFSQPLHEEIALHRRLRHKNIVRYLGSASQGGYLKIFMEEVPGGSLSSLLRSVWGPLKDNESTISFYTRQILQGLGYLHDNHIVHRDIKGDNVLINTFSGLLKISDFGTSKRLAGITPCTETFTGTLQYMAPEIIDQGPRGYGKAADIWSLGCTVIEMATGRPPFHELGSPQAAMFQVGMYKVHPPMPSSLSAEAQAFLLRTFEPDPRLRASAQTLLGDPFLQPGKRSRSPSSPRHAPRPSDAPSASPTPSANSTTQSQTFPCPQAPSQHPPSPPKRCLSYGGTSQLRVPEEPAAEEPASPEESSGLSLLHQESKRRAMLAAVLEQELPALAENLHQEQKQEQGARLGRNHVEELLRCLGAHIHTPNRRQLAQELRALQGRLRAQGLGPALLHRPLFAFPDAVKQILRKRQIRPHWMFVLDSLLSRAVRAALGVLGPEVEKEAVSPRSEELSNEGDSQQSPGQQSPLPVEPEQGPAPLMVQLSLLRAETDRLREILAGKEREYQALVQRALQRLNEEARTYVLAPEPPTALSTDQGLVQWLQELNVDSGTIQMLLNHSFTLHTLLTYATRDDLIYTRIRGGMVCRIWRAILAQRAGSTPVTSGP

Each molecule was assayed against Renilla-HSP90β (UniProt P08238) (assay: LUMIER; HEK293T cells stably expressing Renilla-HSP90β, transfected with 1 of 420 protein kinases, treated with 10 µM KBU2046 or vehicle for 3 days; repeated for 17 kinases with TGFβ treatment).

binding, binds:
RIPK1 (from UniProt Q13546 1-671) (enzyme)
B1
B2
